Among all 400,000 compounds or so, about 5,500 (1.4%) were called active. This list was built around the results that the source calls inconclusive (neither active nor inactive); the mix of calls is not that of the screen. Calls come from the whole dose curve; as a rule, active = well fitted cell-killing curve with a large enough effect; inconclusive = small, poorly fitted or top-dose-only effect, or effect the other way; inactive = flat fitted curve, though single readings scatter. A potency beside an inconclusive call is a rough fit, not a confirmed value.
Assay: qHTS assay for MDR1-selective chemotherapeutics: Primary screen using the parental adenocarcinoma cell KB-3-1; note: nearly all actives have a fitted effect of over 60% in size
Settings: KB-3-1 viability, CellTiter-Glo ATP luminescence, 72 h; activity change, negative = cytotoxic: at 46.1 µM (top of the series)
Method in brief: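 Cells are dispensed, compounds pinned in, plates held at 37 °C for 72 h, then CellTiter-Glo is added and luminescence read after 10 minutes. Cell line: parental KB-3-1 in phenol-red-free DMEM, 10% FBS.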
With `Cc1cccc2sc(N(CCN(C)C)C(=O)/C=C/c3cccs3)nc12` the Potency was inconclusive: 18.4 µM [cytotoxic, single point]. For `O=C(O)c1cccc(N2C(=O)c3ccc4c5c(ccc(c35)C2=O)C(=O)N(c2cccc(C(=O)O)c2)C4=O)c1`, the Potency was “inactive”. In the case of `CC(=O)c1cc(CN2C(=O)CCC2=O)cs1`, the Potency is reported as “inactive”. With `CCCCNc1cc(C)nc(NCc2ccccc2)n1` the Potency was active: 6.51 µM. In the case of `Cc1cccc(NC(=S)Nc2ccc(Oc3ccccc3)cc2)n1`, the Potency is reported as inconclusive: 29.1 µM [cytotoxic, single point]. For `CCN(Cc1ccccc1)c1ccc(/C=N/N=C(N)N)cc1`, the Potency was inconclusive: 8.2 µM [cytotoxic, partial curve, poor fit]. For `CCOc1ccc(NC(=O)CN2C(=O)CSc3ccc(S(=O)(=O)N4CCOCC4)cc32)cc1`, the Potency was “inactive”. In the case of `N#Cc1c(NC(=O)c2ccc([N+](=O)[O-])o2)sc2c1CCC2`, the Potency is reported as active: 5.17 µM. With `O=C(Nc1cccc2ncccc12)c1cccc(Br)c1` the Potency was “inactive”. For `CCc1noc(C)c1C(=O)OCC(=O)NC(C)c1ccccc1` (stereo unspecified), the activity change, negative = cytotoxic was inconclusive: -8.63%. In the case of `CCOC(=O)C1(S(=O)(=O)c2ccc(Cl)cc2)CCN(Cc2ccc(C)cc2)CC1`, the Potency is reported as inconclusive: 29.1 µM [cytotoxic, single point]. In the case of `N#CC1=C(Nc2ccccc2)SC=C(c2ccccc2)N=C1N1CCOCC1`, the Potency is reported as “inactive”. In the case of `CC(C)(C)OC(=O)N[C@H](C(=O)OC(C)(C)C)c1ccc2c(c1)OCO2`, the Potency is reported as “inactive”. With `CCOc1ccc2nc(NC(=O)Cn3[nH]c(=O)c4ccccc4c3=O)sc2c1` the Potency was inconclusive: 29.1 µM [cytotoxic, single point]. In the case of `Cc1ccc2c(c1)nnn2C1CCN(S(=O)(=O)c2ccc(C(=O)N3C(C)CCCC3C)cc2)CC1` (stereo unspecified), the Potency is reported as inconclusive: 18.4 µM [cytotoxic, partial curve, poor fit]. In the case of `Cc1ccc(S/C(=N/S(=O)(=O)c2ccc(Cl)cc2)c2ccccc2)cc1`, the Potency is reported as inconclusive: 4.61 µM [rising, partial curve, poor fit]. With `O=C1CCCN1c1ccc(S(=O)(=O)Nc2ccc3c(c2)OCCO3)cc1` the Potency was active: 18.4 µM. With `O=c1cc(OCc2ccccc2)cc[nH]1` the Potency was “inactive”. In the case of `Cc1ccc(-c2cc(C(F)F)n3ncc(C(=O)N4CCN(c5cccc(C)c5C)CC4)c3n2)cc1`, the Potency is reported as inconclusive: 29.1 µM [cytotoxic, single point]. In the case of `Cc1ccc(S(=O)(=O)N(CC(=O)NCCC2=CCCCC2)Cc2ccccc2)cc1`, the Potency is reported as inconclusive: 23.1 µM [cytotoxic, single point]. For `O=C(Cc1csc(Nc2nc(=S)[nH]c3ccccc23)n1)NCCCN1CCN(c2ccccc2F)CC1`, the Potency was inconclusive: 7.31 µM [cytotoxic, partial curve, poor fit].

Source: PubChem BioAssay AID1347075 (National Center for Advancing Translational Sciences (NCATS), 2019)
% is set by controls: 0 for no effect and ±100 for the full control effect; potency is the fitted concentration of half-maximal effect.
